Reference: PubChem BioAssay AID686937 (Drosophila RNAi Screening Center, 2013)

Aim: 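Knock-downs that reduce output of a secreted reporter enzyme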 (primary screen)
System: Drosophila S2 cells expressing secreted horseradish peroxidase
Reagents: long dsRNA against Drosophila genes
Timing: about 5.5 days (5 days dsRNA, then 12 h reporter induction)
Challenge: reporter expression induced after 5 days of dsRNA, read 12 h later; inducer not stated
Measured: 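After 5 days of dsRNA and 12 h of reporter induction, medium peroxidase read by chemiluminescence and scored as per-plate z-score; higher values mean more reporter released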
Reading the numbers: z-score: higher = more reporter secreted into medium
The deposit covers about 23,000 reagents; this is an unselected part of those that have a named target and a result. 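Reduced-secretion tags in replicate 1 do not always agree with the z-scores; no criterion for assigning the tags was given.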 Names joined by + are all predicted targets of the reagent. Further read-outs or replicates are left out here. The record does not give: the amount of reagent.

z-score, replicate 1, by predicted target and reagent
pst (pastrel): DRSC11003 -3.05
stc (shuttle craft): DRSC03620 0.37
CG13737: DRSC10064 -0.18
Hs2st (Heparan sulfate 2-O-sulfotransferase): DRSC03348 0.21
Exn (Ephexin): DRSC09673 -0.16; DRSC10077 0.25
CNT1 (Concentrative nucleoside transporter 1): DRSC06082 0.31
CG30222: DRSC04125 -0.61; DRSC04262 -0.07
CarT (Carcinine transporter): DRSC03196 0.31
CG42296: DRSC00394 0.37
CG15439: DRSC00453 0.37
CG32023: DRSC08946 -0.15
Rtc1: DRSC20285 0.2
CG10139: DRSC05972 0.48
jim: DRSC11889 0.25
CG7794: DRSC16313 0.39
tplus3a + tplus3b: DRSC03687 -0.43
Prosap: DRSC06382 0.26; DRSC07081 0.22
yellow-b: DRSC03639 0.24
Hsp60C (Heat shock protein 60C): DRSC03036 0.49
tst + CG10375: DRSC14237 0.18
CG12729: DRSC17884 0.33
CG4229: DRSC10407 0.41
CG12963: DRSC05555 -0.41; DRSC06265 0.36
Root (Rootletin): DRSC15972 0.43
CG14803: DRSC18556 0.26
asRNA:CR42743 + CG34162: DRSC01190 0.2
CG13081: DRSC02185 0.39
DnaJ-H (DnaJ homolog): DRSC03273 0.25
CG3345: DRSC00596 0.38
CG3706: DRSC18649 0.52
CG13801: DRSC08335 0.27
Naa30A (N(alpha)-acetyltransferase 30 A): DRSC18583 -1.41
PKD (Protein Kinase D): DRSC16200 0.35
lncRNA:CR43270 (long non-coding RNA::CR43270): DRSC11575 0.36
CG15564: DRSC15102 -0.05
Spn43Ab (Serpin 43Ab): DRSC06781 -0.08
CG12480: DRSC19460 0.03
Hsp60A (Heat shock protein 60A): DRSC20254 -0.11
CG6230: DRSC01989 0.31
CG12713: DRSC09900 0.15
stau (staufen): DRSC07698 0.29
Mical (Molecule interacting with CasL): DRSC14349 0.2; DRSC14351 0.56; DRSC15365 0.42; DRSC15366 0.52
Sec16 (Secretory 16): DRSC19788 -4.89; DRSC19858 0.45
CG31191: DRSC13455 0.27; DRSC15214 0.24; DRSC15215 0.03
futsch: DRSC17688 0.55; DRSC17949 0.28; DRSC17952 0.38; DRSC18543 0.4
l(3)neo38 (lethal (3) neo38): DRSC14946 0.2; DRSC16138 0.21
CG6481: DRSC19995 -0.22
Amacr (Alpha-methylacyl-CoA racemase): DRSC03198 0.35
CG33144: DRSC06132 0.67; DRSC07024 0.25
Shawn + Tyler: DRSC19564 0.28; DRSC19565 -0.05
List (Lithium-inducible SLC6 transporter): DRSC06520 0.29
CG13526: DRSC04168 0.39
14-3-3epsilon: DRSC16370 0.19
CG13299: DRSC09973 0.37
pnt (pointed): DRSC17028 -2.58
CG4744: DRSC06887 0.27
Obp59a (Odorant-binding protein 59a): DRSC04160 0.12
CG3071: DRSC18526 0.12
CG17078: DRSC00484 0.11
MsR2 (Myosuppressin receptor 2): DRSC08336 0.32; DRSC08337 0.29; DRSC22440 -0.57
RpL10Ab (Ribosomal protein L10Ab): DRSC10798 -5
PGAP3 (Post-GPI attachment to proteins 3): DRSC04989 0.03
Usp32 (Ubiquitin specific protease 32): DRSC10979 0.13
CG14111: DRSC10114 0.46

Quoted from the entries so far, 7 entries:
z-score, replicate 1, by predicted target and reagent
CG12713: DRSC09900 0.15
stau (staufen): DRSC07698 0.29
Mical (Molecule interacting with CasL): DRSC14349 0.2; DRSC14351 0.56; DRSC15365 0.42; DRSC15366 0.52
Sec16 (Secretory 16): DRSC19788 -4.89
